Consider one molecule from PMC5361711.

For the assay, the target named is T1, AdipoR1 (human (endogenous in MCF-7)) (UniProt Q96A54).
T1 sequence: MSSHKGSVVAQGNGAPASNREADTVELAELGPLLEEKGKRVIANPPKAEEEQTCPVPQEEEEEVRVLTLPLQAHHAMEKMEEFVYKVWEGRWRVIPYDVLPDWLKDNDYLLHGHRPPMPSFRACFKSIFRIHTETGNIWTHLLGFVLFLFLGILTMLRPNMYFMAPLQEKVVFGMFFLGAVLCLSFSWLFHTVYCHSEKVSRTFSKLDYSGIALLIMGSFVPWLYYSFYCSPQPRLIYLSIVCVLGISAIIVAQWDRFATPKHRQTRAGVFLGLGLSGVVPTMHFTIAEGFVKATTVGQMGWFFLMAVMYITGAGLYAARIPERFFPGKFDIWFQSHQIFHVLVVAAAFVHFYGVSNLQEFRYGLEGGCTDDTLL
Nature of the assay: co-IP; endogenous proteins of MCF-7 cell lysate; precipitated with anti-AdipoR1 and blotted with anti-Flotillin-1, and the reverse; Protein G Plus/Protein A agarose, 4 °C.

These are yes or no findings as the source states them, for the method shown. Binding seen in cells or lysates may run through a third protein. Some results given as binding are weak or reduced against the parent protein; the word gives no strength.

B1: Flotillin-1 (protein, UniProt O75955 1-427)
chain: MFFTCGPNEAMVVSGFCRSPPVMVAGGRVFVLPCIQQIQRISLNTLTLNVKSEKVYTRHGVPISVTGIAQVKIQGQNKEMLAAACQMFLGKTEAEIAHIALETLEGHQRAIMAHMTVEEIYKDRQKFSEQVFKVASSDLVNMGISVVSYTLKDIHDDQDYLHSLGKARTAQVQKDARIGEAEAKRDAGIREAKAKQEKVSAQYLSEIEMAKAQRDYELKKAAYDIEVNTRRAQADLAYQLQVAKTKQQIEEQRVQVQVVERAQQVAVQEQEIARREKELEARVRKPAEAERYKLERLAEAEKSQLIMQAEAEAASVRMRGEAEAFAIGARARAEAEQMAKKAEAFQLYQEAAQLDMLLEKLPQVAEEISGPLTSANKITLVSSGSGTMGAAKVTGEVLDILTRLPESVERLTGVSISQVNHKPLRTA
In the case of B1, the binding result was “binds”.
